# Results taken from PubChem BioAssay AID504834 (National Center for Advancing Translational Sciences (NCATS), 2011).
# Among all 320,000 compounds or so, about 22,000 (6.9%) were called active. This list was built around the results that the source calls inconclusive (neither active nor inactive); the mix of calls is not that of the screen. Calls follow the shape of the dose curve; as a rule, active = well fitted inhibition curve with a large enough effect; inconclusive = small, poorly fitted or top-dose-only effect, or another doubt; inactive = no such curve, though single readings can be large or run the other way. Where the call is inconclusive, the potency comes from a doubtful curve fit.
# Assay: Primary qHTS for delayed death inhibitors of the malarial parasite plastid, 96 hour incubation
# Conditions: P. falciparum luciferase reporter growth; series mostly up to 28.7 µM
# Summary of the method: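 Parasite growth measured via integrated firefly luciferase reporter in P. falciparum. Infected erythrocytes at 2% hematocrit, 0.05% parasitemia final were treated 96 hours at 37 C under 5% CO2, and luminescence was read.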
# % is scaled to controls: 0 for no effect and ±100 for the full control effect; potency is read from the fitted curve at half-maximal effect.
Structure (SMILES),Potency,"activity change, negative = inhibition"
Cc1c(Cl)cccc1NC(=O)Nc1cccnc1,"inconclusive: 18.5 µM [inhibitor, single point]",
Cc1ccc(O)c(CP(=O)(c2ccccc2)c2ccccc2)c1,"inconclusive: 13.1 µM [inhibitor, partial curve, poor fit]",
CC1=C(C(=O)N2CCOCC2)C(c2ccsc2)C2=C(CCCC2=O)N1 (stereo unspecified),"inconclusive: 0.0037 µM [inhibitor, full curve, poor fit]",
CN(C)S(=O)(=O)N1CCC(c2ccc(F)cc2)C(COc2ccc3c(c2)OCO3)C1 (stereo unspecified),inactive,
COc1ccc(/C=C2\CC/C(=C\c3ccc(OC)c(OC)c3)C2=O)cc1OC,"inconclusive: 9.28 µM [inhibitor, partial curve, poor fit]",
COc1ccccc1NC(=O)C1CCN(C(=O)C2CC(=O)N(c3ccc(C)cc3)C2)CC1 (stereo unspecified),inactive,
Cc1cccc(OCC(=O)NCC(C)(C)N2CCOCC2)c1,"inconclusive: 13.1 µM [inhibitor, single point]",
O=C(CSc1nnnn1C1CCCC1)N1CCOCC1,"inconclusive: 13.1 µM [inhibitor, partial curve, poor fit]",
COC(=O)c1ccccc1NC(=O)c1ccc2c(c1)OCCCO2,"inconclusive: 18.5 µM [inhibitor, single point]",
CC(=O)c1cc(-c2ccccc2)n(CCC(=O)NCc2cccs2)c1C,"inconclusive: 10.4 µM [inhibitor, single point]",
CN1CCCN(C(=O)c2cc(-c3ccc(Cl)c(Cl)c3Cl)nc3ccccc23)CC1,"inconclusive: 18.5 µM [inhibitor, single point]",
O=C(N/N=C/c1ccccc1OC(=O)N1CCOCC1)c1cccs1,"inconclusive: 18.5 µM [inhibitor, single point]",
O=C(NCc1ccco1)C(c1ccco1)N(CCc1ccccc1)C(=O)Cn1nnc2ccccc21 (stereo unspecified),active: 2.33 µM,
CCCc1cc(-c2[nH]ncc2-c2ccc3c(c2)OCCCO3)c(O)cc1O,active: 13.1 µM,
CC(C)=CCCC1(C)C=Cc2c(ccc3c2[nH]c2cc(O)c(C)cc23)O1 (stereo unspecified),"inconclusive: 18.5 µM [inhibitor, single point]",
O=C(CN1CCN(C(=O)c2ccc(-c3nc4ccccc4s3)o2)CC1)Nc1ccccc1Cl,"inconclusive: 1.65 µM [inhibitor, partial curve, poor fit]",
C/C(=N\NC(=O)c1ccc(NS(=O)(=O)c2cccs2)cc1)c1ccncc1,,inactive: 21.8% [at 5.75 µM]
CCOc1ccc(C(=O)/C=C/c2ccc(SC)cc2)cc1,"inconclusive: 0.0329 µM [inhibitor, full curve]",
O=C(O)c1ccc(C2Nc3ccccc3C(=O)N2Cc2ccccc2)cc1 (stereo unspecified),"inconclusive: 10.4 µM [inhibitor, partial curve]",
O=C(CSc1nnc(-c2cccnc2)n1CCN1CCCCC1)Nc1cccc(Cl)c1,"inconclusive: 9.28 µM [inhibitor, partial curve, poor fit]",
COc1ccc(CNS(=O)(=O)c2ccc3c(c2)N(C(C)=O)CC(C)S3)cc1 (stereo unspecified),"inconclusive: 18.5 µM [inhibitor, single point]",
C/C(=N\NC(=O)c1nnn(-c2nonc2N)c1-c1ccccc1)c1ccco1,inactive,

Structure (SMILES),Potency,"activity change, negative = inhibition"
Cn1c(=O)n(C)c2cc([N+](=O)[O-])c(N3CCN(S(=O)(=O)c4ccc(C(C)(C)C)cc4)CC3)cc21,"inconclusive: 9.28 µM [inhibitor, partial curve]",
CN(C(=O)COc1ccc(Cl)cc1)c1nnc(C23CC4CC(CC(C4)C2)C3)s1,inactive,
O=C(NCCCN1CCOCC1)c1cc(-c2ccc(F)cc2)nc2ccccc12,inactive,
Cc1nc2ccc(NC(=O)NCCCO)cc2s1,inactive,
O=C(C1CCN(Cc2ccc(F)cc2)CC1)N(CCc1ccccc1)Cc1ccccc1,"inconclusive: 11.7 µM [inhibitor, single point]",
CSc1ccc(CN(C)CC(=O)Nc2ccc(C)cc2Br)cc1,"inconclusive: 14.7 µM [inhibitor, partial curve, poor fit]",
Nc1ccc(N2CCCCC2)c(S(=O)(=O)Nc2ccccc2Cl)c1,inactive,
CCOc1cc2[nH]c(=S)n(CCCN3CCOCC3)c(=O)c2cc1OCC,"inconclusive: 13.1 µM [inhibitor, partial curve, poor fit]",
O=C(CC1C(=O)NCCN1Cc1ccc(F)cc1)NCCN1CCCc2ccccc21 (stereo unspecified),"inconclusive: 9.28 µM [inhibitor, single point]",
Cc1ccc(C)c(NS(=O)(=O)c2cc(C(=O)Nc3ccccc3-c3ccccc3)ccc2Cl)c1,"inconclusive: 11.7 µM [inhibitor, single point]",
NC(=O)c1cc2ccccc2o/c1=N/NC(=O)c1cccc(F)c1,"inconclusive: 0.415 µM [inhibitor, full curve, poor fit]",
COc1ccc(/C=N/N=C2\SCC(=O)N2c2c(C)n(C)n(-c3ccccc3)c2=O)cc1OC,"inconclusive: 11.7 µM [inhibitor, partial curve, poor fit]",
O=C(N/N=C/C=C/c1ccc(Br)cc1)C(O)c1ccccc1 (stereo unspecified),inactive,
COc1cc(C(=O)OCC(=O)N2c3ccccc3NC(=O)C2(C)C)ccc1OCC(C)C,"inconclusive: 18.5 µM [inhibitor, single point]",
O=C(NCCCN1CCOCC1)c1ccc2c(=O)n(Cc3ccc(Cl)cc3)c(=S)[nH]c2c1,"inconclusive: 14.7 µM [inhibitor, single point]",
Cc1cc(NCC2CCCO2)n2c(nc3ccccc32)c1C#N (stereo unspecified),"inconclusive: 20.8 µM [inhibitor, partial curve, poor fit]",
CCN(CC)S(=O)(=O)c1ccc(C(=O)/C=C/c2ccc(-c3ccc([N+](=O)[O-])cc3)o2)cc1,inactive,
CCOc1ccccc1NC1=NCC(=O)N1Cc1ccc(F)cc1,"inconclusive: 1.04 µM [inhibitor, single point]",
CCn1c(COc2ccc(Cl)cc2)nnc1SC1CCc2ccccc2C1=O (stereo unspecified),"inconclusive: 11.7 µM [inhibitor, single point]",
O=C(c1ccco1)N1CCN(c2ncnc3c2[nH]c2ccc(Br)cc23)CC1,"inconclusive: 13.1 µM [inhibitor, partial curve]",
CC(=O)Nc1ccc(NC(=O)COc2ccc(-c3ccc(C#N)cc3)cc2)cc1,inactive,
CN(C1CC(C)(C)NC(C)(C)C1)S(=O)(=O)CC12CCC(CC1=O)C2(C)C (stereo unspecified),inactive,

# Single entries from above.
# Potency with O=C(c1ccco1)N1CCN(c2ncnc3c2[nH]c2ccc(Br)cc23)CC1 reads inconclusive: 13.1 µM [inhibitor, partial curve]
# Potency with CCOc1ccccc1NC1=NCC(=O)N1Cc1ccc(F)cc1 reads inconclusive: 1.04 µM [inhibitor, single point]
# Potency with NC(=O)c1cc2ccccc2o/c1=N/NC(=O)c1cccc(F)c1 reads inconclusive: 0.415 µM [inhibitor, full curve, poor fit]

# The list continues:

Structure (SMILES),Potency,"activity change, negative = inhibition"
CCOc1ccc(NC(=O)C(C)Sc2nnnn2C)cc1 (stereo unspecified),"inconclusive: 18.5 µM [inhibitor, single point]",
O=S(=O)(c1ccc(N2CCC(c3ccc(Cl)cc3)=N2)cc1)N(CCO)CCO,inactive,
Cc1cccc(NS(=O)(=O)c2cc3c4c(c2)CCN4C(=O)CC3)c1C,"inconclusive: 9.28 µM [inhibitor, single point]",
O=C1CCN(CCc2ccccc2)CCN1[C@H](CSc1ccccc1)Cc1ccccc1,"inconclusive: 4.15 µM [inhibitor, single point]",
COC(=O)c1cccc2c1-c1ccccc1/C2=N\NC(N)=O,"inconclusive: 13.1 µM [inhibitor, partial curve, poor fit]",
Fc1ccccc1OCCCn1ccnc1,inactive,
CCOC(=O)C1CCN(C(=O)C2(NC(=O)Nc3ccccc3C)CCCCC2)CC1,inactive,
CCCCC[C@H]1CN(Cc2ccc(OC)cc2)C(=O)[C@@H]1CC(=O)NCc1ccccc1,"inconclusive: 1.31 µM [inhibitor, partial curve, poor fit]",
COc1ccc(OCc2cc(C(=O)NC3CCOC(C)(C)C3)no2)c2ccccc12 (stereo unspecified),active: 1.17 µM,
CC(=O)c1c(C)[nH]c(C(=O)Nc2nc(-c3ccc(-c4ccccc4)cc3)cs2)c1C,active: 7.38 µM,
CCOC(=O)c1c(C)[nH]c(C)c1C(=O)CSc1nc(N)cc(N)n1,"inconclusive: 9.28 µM [inhibitor, single point]",
CCn1c(=O)c2cc(C(=O)N3CCOCC3)sc2c2ccccc21,"inconclusive: 1.04 µM [inhibitor, full curve, poor fit]",
COc1ccc(C(=O)N(CCc2ccccc2)Cc2cccs2)c(OC)c1,"inconclusive: 13.1 µM [inhibitor, single point]",
O=C(NC1CCCCC1)C(c1ccccc1)N(C(=O)c1csnn1)C1CC1 (stereo unspecified),"inconclusive: 18.5 µM [inhibitor, partial curve, poor fit]",
Cc1cc(C)cc(N(CC(=O)NCCSc2ccccn2)S(=O)(=O)c2ccccc2)c1,inactive,
Nc1nc(Nc2ccc(Cl)cc2)nc(NCc2ccco2)c1[N+](=O)[O-],"inconclusive: 9.28 µM [inhibitor, partial curve, poor fit]",
Cc1ccc(-c2nnc(SCC(=O)N/N=C/c3ccccc3C(=O)O)n2-c2ccccc2)cc1,inactive,
CN1CC(c2ccccc2Cl)C2(COc3ccccc3C2=O)C12C(=O)Nc1ccccc12 (stereo unspecified),"inconclusive: 1.17 µM [inhibitor, full curve, poor fit]",
COc1cc(/C=C/C(=O)OCC(=O)NCC(=O)Nc2cccc(C)c2C)ccc1OC(F)F,"inconclusive: 18.5 µM [inhibitor, single point]",
N#Cc1ccccc1S(=O)(=O)N1CCN(c2cnccn2)CC1,inactive,
CC1(C)Cc2ccccc2-c2nnc(-c3ccccn3)n21,"inconclusive: 4.15 µM [inhibitor, single point]",
O=C(O)CCCCCCCCc1cn(CC2CCCCC2)nn1,"inconclusive: 8.28 µM [inhibitor, partial curve, poor fit]",
